Results: the supplement of paper PMC6411743
± gives the standard deviation of the averaged measurements. The entries are a selection whose mix differs from that of the whole data set.

Protein sequences, listed by entry. Tags and fused reporters are not part of them. Lines headed by an entry give the natural chain unless they say otherwise; changes in a name come on top.
UniProt Q8WUM4: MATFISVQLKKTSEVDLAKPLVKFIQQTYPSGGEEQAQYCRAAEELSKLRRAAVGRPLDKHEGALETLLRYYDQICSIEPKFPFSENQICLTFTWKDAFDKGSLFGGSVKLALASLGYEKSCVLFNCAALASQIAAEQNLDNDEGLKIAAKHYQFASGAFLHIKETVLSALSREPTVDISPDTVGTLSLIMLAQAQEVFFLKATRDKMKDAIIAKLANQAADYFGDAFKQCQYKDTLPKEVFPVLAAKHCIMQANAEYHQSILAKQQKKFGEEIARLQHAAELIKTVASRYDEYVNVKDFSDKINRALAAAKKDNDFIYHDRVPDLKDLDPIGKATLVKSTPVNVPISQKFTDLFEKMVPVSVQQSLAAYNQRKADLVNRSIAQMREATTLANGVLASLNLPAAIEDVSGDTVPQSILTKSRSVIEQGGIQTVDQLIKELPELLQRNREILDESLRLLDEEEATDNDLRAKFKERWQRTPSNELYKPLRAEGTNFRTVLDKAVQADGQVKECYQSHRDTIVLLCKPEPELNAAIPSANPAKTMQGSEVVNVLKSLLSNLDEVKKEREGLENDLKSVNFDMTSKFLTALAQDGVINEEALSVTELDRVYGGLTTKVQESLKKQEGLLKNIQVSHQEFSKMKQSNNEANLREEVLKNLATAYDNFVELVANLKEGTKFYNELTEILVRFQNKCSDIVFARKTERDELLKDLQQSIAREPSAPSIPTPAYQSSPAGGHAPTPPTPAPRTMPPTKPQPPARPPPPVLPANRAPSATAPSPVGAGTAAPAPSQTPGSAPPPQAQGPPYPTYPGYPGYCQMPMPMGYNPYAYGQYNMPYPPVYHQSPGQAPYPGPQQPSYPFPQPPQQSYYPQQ
UniProt Q8TEQ6: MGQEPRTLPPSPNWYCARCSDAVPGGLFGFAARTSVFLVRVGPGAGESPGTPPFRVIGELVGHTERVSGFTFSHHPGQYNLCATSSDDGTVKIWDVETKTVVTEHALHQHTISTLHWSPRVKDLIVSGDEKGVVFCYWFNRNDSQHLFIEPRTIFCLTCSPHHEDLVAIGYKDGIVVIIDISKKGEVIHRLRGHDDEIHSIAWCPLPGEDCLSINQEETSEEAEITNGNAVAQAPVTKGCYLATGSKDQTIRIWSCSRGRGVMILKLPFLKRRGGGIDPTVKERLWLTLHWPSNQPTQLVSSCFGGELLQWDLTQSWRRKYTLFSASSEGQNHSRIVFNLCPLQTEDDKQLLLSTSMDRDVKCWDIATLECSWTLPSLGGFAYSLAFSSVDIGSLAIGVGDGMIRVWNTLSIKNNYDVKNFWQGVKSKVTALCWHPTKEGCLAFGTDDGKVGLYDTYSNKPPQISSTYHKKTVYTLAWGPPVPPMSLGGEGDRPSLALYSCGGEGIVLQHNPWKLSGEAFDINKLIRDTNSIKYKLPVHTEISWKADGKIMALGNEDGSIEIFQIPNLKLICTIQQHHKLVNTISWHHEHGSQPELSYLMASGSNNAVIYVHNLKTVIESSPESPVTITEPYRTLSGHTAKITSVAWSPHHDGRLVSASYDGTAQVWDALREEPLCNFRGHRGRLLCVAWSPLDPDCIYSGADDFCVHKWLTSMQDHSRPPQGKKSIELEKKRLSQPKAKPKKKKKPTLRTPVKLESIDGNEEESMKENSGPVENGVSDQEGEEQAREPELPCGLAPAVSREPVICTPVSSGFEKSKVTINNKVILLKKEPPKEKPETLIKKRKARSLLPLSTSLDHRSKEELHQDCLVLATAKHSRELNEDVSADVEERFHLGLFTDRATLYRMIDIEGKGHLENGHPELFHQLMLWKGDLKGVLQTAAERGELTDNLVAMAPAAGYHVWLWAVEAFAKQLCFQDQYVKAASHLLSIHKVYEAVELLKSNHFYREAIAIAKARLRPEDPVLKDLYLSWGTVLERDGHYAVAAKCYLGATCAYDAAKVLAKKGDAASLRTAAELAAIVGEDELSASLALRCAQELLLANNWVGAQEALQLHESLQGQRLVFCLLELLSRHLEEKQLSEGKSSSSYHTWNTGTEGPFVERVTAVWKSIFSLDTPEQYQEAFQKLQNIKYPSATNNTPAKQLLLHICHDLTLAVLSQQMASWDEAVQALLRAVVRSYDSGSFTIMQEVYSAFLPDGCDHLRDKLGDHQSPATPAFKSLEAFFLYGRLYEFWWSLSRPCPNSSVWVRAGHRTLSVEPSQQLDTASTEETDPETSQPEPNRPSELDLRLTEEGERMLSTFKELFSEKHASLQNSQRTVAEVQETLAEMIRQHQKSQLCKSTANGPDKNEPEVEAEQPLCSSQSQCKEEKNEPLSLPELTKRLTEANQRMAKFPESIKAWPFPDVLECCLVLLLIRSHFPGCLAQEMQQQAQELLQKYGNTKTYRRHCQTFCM
UniProt Q8NEZ5: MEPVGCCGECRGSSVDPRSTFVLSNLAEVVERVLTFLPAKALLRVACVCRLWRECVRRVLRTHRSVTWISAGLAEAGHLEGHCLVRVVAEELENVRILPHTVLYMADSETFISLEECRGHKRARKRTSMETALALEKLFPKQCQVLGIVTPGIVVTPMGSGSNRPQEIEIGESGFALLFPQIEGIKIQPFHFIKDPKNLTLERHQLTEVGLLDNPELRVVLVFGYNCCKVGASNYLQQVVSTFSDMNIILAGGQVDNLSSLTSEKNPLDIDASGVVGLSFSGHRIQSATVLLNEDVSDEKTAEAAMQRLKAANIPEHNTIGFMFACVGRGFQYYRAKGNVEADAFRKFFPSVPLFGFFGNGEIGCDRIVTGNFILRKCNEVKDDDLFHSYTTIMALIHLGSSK
UniProt Q8WY22: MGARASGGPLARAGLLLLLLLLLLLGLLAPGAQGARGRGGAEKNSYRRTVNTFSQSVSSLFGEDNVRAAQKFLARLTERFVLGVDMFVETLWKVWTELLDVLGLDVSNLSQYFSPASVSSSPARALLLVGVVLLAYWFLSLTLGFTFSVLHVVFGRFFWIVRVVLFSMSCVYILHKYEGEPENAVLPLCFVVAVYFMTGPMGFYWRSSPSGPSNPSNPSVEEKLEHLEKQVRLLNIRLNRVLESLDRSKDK
UniProt Q92538, whole entry: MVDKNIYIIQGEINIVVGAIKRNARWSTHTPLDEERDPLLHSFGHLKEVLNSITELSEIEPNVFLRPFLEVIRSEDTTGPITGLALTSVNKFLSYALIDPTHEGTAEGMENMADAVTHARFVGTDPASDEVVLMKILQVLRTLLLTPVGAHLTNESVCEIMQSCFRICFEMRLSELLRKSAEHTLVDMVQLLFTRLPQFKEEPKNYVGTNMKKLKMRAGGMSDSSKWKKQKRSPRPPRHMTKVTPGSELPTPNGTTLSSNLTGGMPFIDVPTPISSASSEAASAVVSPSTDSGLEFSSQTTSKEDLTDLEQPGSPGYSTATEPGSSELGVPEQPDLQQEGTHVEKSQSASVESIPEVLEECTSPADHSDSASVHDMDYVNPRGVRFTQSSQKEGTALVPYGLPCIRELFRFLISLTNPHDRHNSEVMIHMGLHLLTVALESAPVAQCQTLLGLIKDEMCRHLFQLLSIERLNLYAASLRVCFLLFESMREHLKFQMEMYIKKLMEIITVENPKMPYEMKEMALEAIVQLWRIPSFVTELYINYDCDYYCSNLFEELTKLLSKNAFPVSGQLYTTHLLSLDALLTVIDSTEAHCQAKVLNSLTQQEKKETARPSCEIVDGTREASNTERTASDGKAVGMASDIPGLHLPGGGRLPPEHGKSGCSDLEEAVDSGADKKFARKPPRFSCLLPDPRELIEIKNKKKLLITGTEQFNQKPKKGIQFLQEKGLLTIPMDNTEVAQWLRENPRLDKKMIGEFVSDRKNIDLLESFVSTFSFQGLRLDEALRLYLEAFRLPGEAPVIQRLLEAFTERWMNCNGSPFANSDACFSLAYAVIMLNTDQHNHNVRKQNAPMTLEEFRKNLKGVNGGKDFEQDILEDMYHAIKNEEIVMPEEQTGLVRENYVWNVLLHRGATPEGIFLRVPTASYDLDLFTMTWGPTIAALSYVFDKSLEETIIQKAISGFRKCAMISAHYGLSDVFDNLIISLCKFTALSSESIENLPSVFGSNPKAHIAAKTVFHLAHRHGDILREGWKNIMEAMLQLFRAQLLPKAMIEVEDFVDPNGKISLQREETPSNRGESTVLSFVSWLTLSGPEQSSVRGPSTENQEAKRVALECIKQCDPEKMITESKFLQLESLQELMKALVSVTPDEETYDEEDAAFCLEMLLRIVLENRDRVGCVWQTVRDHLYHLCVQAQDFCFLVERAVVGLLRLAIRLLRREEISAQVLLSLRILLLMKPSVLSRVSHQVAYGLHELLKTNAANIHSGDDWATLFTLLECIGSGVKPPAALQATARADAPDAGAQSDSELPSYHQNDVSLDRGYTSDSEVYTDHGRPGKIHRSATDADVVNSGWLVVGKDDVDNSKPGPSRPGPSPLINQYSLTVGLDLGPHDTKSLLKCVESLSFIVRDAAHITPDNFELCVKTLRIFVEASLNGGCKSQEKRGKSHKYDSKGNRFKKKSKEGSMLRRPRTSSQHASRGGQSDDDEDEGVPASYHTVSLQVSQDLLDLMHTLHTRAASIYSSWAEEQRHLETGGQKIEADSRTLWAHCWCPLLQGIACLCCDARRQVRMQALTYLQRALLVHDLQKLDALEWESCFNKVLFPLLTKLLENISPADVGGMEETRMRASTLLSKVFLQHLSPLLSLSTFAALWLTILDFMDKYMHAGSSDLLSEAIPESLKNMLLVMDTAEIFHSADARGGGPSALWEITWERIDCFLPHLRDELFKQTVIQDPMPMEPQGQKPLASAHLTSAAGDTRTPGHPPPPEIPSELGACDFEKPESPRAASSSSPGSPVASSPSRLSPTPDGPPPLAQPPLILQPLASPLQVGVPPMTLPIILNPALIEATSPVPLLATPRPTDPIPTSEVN
UniProt Q8NI37: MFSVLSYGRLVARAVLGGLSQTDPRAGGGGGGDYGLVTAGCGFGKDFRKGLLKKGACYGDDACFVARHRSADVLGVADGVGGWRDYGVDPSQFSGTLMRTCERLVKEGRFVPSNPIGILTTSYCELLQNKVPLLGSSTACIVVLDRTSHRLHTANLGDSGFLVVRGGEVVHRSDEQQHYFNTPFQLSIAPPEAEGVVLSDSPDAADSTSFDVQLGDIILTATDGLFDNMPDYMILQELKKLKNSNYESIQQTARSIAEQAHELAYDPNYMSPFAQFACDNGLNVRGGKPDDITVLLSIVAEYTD
UniProt Q92625: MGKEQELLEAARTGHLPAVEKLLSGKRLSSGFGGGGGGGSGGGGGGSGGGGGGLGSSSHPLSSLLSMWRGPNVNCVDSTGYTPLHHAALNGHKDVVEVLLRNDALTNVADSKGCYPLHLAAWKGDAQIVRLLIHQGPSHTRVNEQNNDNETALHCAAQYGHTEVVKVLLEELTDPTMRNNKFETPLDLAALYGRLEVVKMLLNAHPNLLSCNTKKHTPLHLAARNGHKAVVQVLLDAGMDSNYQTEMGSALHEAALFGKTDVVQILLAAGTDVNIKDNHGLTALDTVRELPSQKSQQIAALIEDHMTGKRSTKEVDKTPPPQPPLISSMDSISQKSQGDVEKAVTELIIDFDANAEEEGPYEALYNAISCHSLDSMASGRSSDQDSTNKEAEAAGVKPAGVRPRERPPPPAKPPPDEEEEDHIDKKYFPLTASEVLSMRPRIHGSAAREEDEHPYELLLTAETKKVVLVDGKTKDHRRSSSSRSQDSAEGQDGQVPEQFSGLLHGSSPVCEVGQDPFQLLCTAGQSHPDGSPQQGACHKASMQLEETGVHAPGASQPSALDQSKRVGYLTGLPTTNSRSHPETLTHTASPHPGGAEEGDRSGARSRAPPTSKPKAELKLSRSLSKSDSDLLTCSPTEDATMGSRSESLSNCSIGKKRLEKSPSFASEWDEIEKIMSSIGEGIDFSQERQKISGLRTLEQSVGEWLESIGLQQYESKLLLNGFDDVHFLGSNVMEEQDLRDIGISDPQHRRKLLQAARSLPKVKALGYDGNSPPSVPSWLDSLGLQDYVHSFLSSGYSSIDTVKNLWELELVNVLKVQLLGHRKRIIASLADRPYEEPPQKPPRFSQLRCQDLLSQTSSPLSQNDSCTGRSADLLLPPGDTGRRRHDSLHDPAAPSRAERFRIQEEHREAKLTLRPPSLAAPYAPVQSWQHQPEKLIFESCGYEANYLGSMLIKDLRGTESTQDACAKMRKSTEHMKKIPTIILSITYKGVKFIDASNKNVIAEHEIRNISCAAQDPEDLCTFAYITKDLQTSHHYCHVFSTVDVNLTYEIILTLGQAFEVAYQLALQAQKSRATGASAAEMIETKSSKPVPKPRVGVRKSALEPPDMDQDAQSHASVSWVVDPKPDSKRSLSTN
UniProt Q8TEA8: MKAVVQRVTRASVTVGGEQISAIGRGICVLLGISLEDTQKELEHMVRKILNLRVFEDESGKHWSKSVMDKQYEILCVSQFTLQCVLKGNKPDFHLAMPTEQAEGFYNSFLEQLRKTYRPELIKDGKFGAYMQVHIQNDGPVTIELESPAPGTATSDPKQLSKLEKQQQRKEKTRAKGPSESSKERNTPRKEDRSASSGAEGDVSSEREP

Compound: Nc1ncnc2c1ncn2[C@@H]1O[C@H](COP(=O)(O)OP(=O)(O)NP(=O)(O)O)[C@@H](O)[C@H]1O [adenylyl imidodiphosphate]
Test: NP40-soluble protein abundance relative to vehicle (solubility fold change) (ratio); higher = more soluble protein in presence of AMP-PNP
Procedure, shortened: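 Across three independent experiments, values are fold changes against the detergent-processed vehicle for each replicate, based on vsn-normalised intensities. The samples were Jurkat crude lysate treated with eight concentrations (0.1 to 10 mM) for 10 min at room temperature and then 3 min at 37 °C. Lysate was solubilised with 0.8% NP40 and benzonase, ultracentrifuged, and the supernatant analysed by TMT-labelled LC-MS/MS.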

Target	NP40-soluble protein abundance (concentration: 1mM)	NP40-soluble protein abundance (concentration: 2mM)	NP40-soluble protein abundance (concentration: 4mM)	NP40-soluble protein abundance (concentration: 6mM)	NP40-soluble protein abundance (concentration: 8mM)	NP40-soluble protein abundance (concentration: 10mM)
NUP37 (UniProt Q8NFH4)	0.97 ± 0.086	0.896 ± 0.076	0.967 ± 0.071	0.98 ± 0.032	1 ± 0.037	1 ± 0.04
UniProt Q8TD16 and related entries	1.032 ± 0.0098	1.06 ± 0.051	1.05 ± 0.035	0.999 ± 0.011	0.967 ± 0.01	0.972 ± 0.033
PDCD6IP (UniProt Q8WUM4)	1.01 ± 0.028	1.02 ± 0.03	0.9732 ± 0.0074	1.02 ± 0.014	0.991 ± 0.021	0.988 ± 0.014
GEMIN5 (UniProt Q8TEQ6)	0.9738 ± 0.0087	0.976 ± 0.028	0.987 ± 0.029	0.972 ± 0.023	0.982 ± 0.025	0.967 ± 0.038
GIMAP7 (UniProt Q8NHV1)	0.978 ± 0.028	0.932 ± 0.024	0.946 ± 0.042	0.8985 ± 0.007	0.88 ± 0.012	0.862 ± 0.046
ZNF592 (UniProt Q92610)	0.996 ± 0.063	1.047 ± 0.008	1.03 ± 0.077	1.04 ± 0.081	1.08 ± 0.073	1.13 ± 0.11
GTF2H4 (UniProt Q92759)	1.008 ± 0.0089	0.961 ± 0.045	1.01 ± 0.018	1 ± 0.02	1.02 ± 0.025	0.978 ± 0.035
RNF169 (UniProt Q8NCN4)	1.03 ± 0.018	1.08 ± 0.061	1.08 ± 0.047	1.11 ± 0.054	1.09 ± 0.056	1.2 ± 0.062
NUP133 (UniProt Q8WUM0)	0.96 ± 0.011	0.922 ± 0.018	0.958 ± 0.027	0.905 ± 0.018	0.9213 ± 0.0033	0.932 ± 0.03
UniProt Q8NDX1 and related entries	0.983 ± 0.03	1.04 ± 0.056	0.998 ± 0.032	1 ± 0.028	0.985 ± 0.056	1.03 ± 0.067
UniProt Q8TEA7 and related entries	0.948 ± 0.089	0.94 ± 0.08	0.959 ± 0.029	0.939 ± 0.05	0.956 ± 0.041	0.94 ± 0.06
UniProt Q8NEZ5 and related entries	0.99 ± 0.02	0.901 ± 0.082	0.99 ± 0.023	1 ± 0.04	1.06 ± 0.025	1.01 ± 0.025
DNAJC9 (UniProt Q8WXX5)	1.09 ± 0.043	1.14 ± 0.038	1.24 ± 0.032	1.24 ± 0.099	1.31 ± 0.11	1.29 ± 0.072
FIG4 (UniProt Q92562)	1 ± 0.022	1.04 ± 0.024	1.06 ± 0.04	1.02 ± 0.024	0.9942 ± 0.0076	0.9926 ± 0.0034
UniProt Q8WVD3 and related entries	0.98104 ± 7.6e-05	1.03 ± 0.034	1.01 ± 0.035	1.03 ± 0.035	1.011 ± 0.0067	1.02 ± 0.053
UniProt Q8WUW1 and related entries	0.925 ± 0.049	0.937 ± 0.068	0.89 ± 0.043	0.8947 ± 0.0013	0.905 ± 0.052	0.892 ± 0.035
BRI3BP (UniProt Q8WY22)	0.96 ± 0.04	0.955 ± 0.03	1.02 ± 0.034	1.13 ± 0.12	1.15 ± 0.1	1.12 ± 0.084
RTF1 (UniProt Q92541)	1.03 ± 0.012	1.08 ± 0.06	1.03 ± 0.042	1.01 ± 0.022	0.984 ± 0.03	1.02 ± 0.046
UniProt Q8TEQ0 and related entries	1.02 ± 0.035	1.03 ± 0.047	1.01 ± 0.029	0.98 ± 0.054	0.969 ± 0.017	0.953 ± 0.021
UniProt Q8WWW0 and related entries	0.9981 ± 0.0063	0.996 ± 0.033	1.02 ± 0.018	1.03 ± 0.039	1.02 ± 0.029	1.03 ± 0.052

Target	NP40-soluble protein abundance (concentration: 1mM)	NP40-soluble protein abundance (concentration: 2mM)	NP40-soluble protein abundance (concentration: 4mM)	NP40-soluble protein abundance (concentration: 6mM)	NP40-soluble protein abundance (concentration: 8mM)	NP40-soluble protein abundance (concentration: 10mM)
UniProt Q8TAP6 and related entries	0.992 ± 0.028	0.999 ± 0.037	0.982 ± 0.051	0.969 ± 0.034	1.01 ± 0.034	0.985 ± 0.03
UniProt Q92574 and related entries	1 ± 0.031	1.04 ± 0.061	0.986 ± 0.022	0.966 ± 0.029	0.937 ± 0.03	0.97 ± 0.04
FBXO30 (UniProt Q8TB52)	1.03 ± 0.0066	1.003 ± 0.0059	0.952 ± 0.015	0.998 ± 0.012	0.975 ± 0.013	0.983 ± 0.016
ZNF384 (UniProt Q8TF68)	1 ± 0.045	1.05 ± 0.051	1.031 ± 0.0019	1.02 ± 0.046	1.02 ± 0.043	1.05 ± 0.033
AKAP1 (UniProt Q92667)	1.02 ± 0.025	1.07 ± 0.074	1.02 ± 0.023	0.993 ± 0.023	0.962 ± 0.012	1 ± 0.017
UniProt Q8TF01	1.04 ± 0.052	1.05 ± 0.064	1.04 ± 0.069	1.08 ± 0.085	1.04 ± 0.083	1.07 ± 0.15
UniProt Q92918-2|K7ER95	1.03 ± 0.017	0.979 ± 0.025	1.02 ± 0.034	0.984 ± 0.028	0.9752 ± 0.0054	0.984 ± 0.025
NEK9 (UniProt Q8TD19)	0.984 ± 0.015	0.9512 ± 0.006	0.975 ± 0.012	0.97 ± 0.04	0.976 ± 0.05	0.947 ± 0.021
UniProt Q92538 and related entries	0.974 ± 0.015	0.941 ± 0.029	0.948 ± 0.018	0.91 ± 0.032	0.899 ± 0.034	0.903 ± 0.041
KBTBD7 (UniProt Q8WVZ9)	0.977 ± 0.014	0.9633 ± 0.004	0.959 ± 0.025	0.987 ± 0.01	1.03 ± 0.018	0.988 ± 0.03
LEO1 (UniProt Q8WVC0)	1.025 ± 0.006	1.04 ± 0.062	1.01 ± 0.029	1.02 ± 0.03	0.997 ± 0.016	1.02 ± 0.024
GALNT6 (UniProt Q8NCL4)	1.005 ± 0.0084	0.9987 ± 0.0047	0.967 ± 0.011	1 ± 0.024	0.9866 ± 0.0025	1 ± 0.015
HSD17B8 (UniProt Q92506)	1.05 ± 0.045	1.03 ± 0.031	1.04 ± 0.018	1.06 ± 0.019	1.04 ± 0.024	1.075 ± 0.0054
H1FX (UniProt Q92522)	0.992 ± 0.053	1.07 ± 0.08	1.04 ± 0.052	1.13 ± 0.099	1.11 ± 0.099	1.27 ± 0.048
TOR1AIP2 (UniProt Q8NFQ8)	0.996 ± 0.031	1.04 ± 0.068	0.956 ± 0.023	0.984 ± 0.026	0.945 ± 0.019	0.985 ± 0.029
LPGAT1 (UniProt Q92604)	0.944 ± 0.016	0.931 ± 0.017	0.9501 ± 0.0046	0.9566 ± 0.0013	0.991 ± 0.023	0.9529 ± 0.0026
THOC2 (UniProt Q8NI27)	1.36 ± 0.16	1.46 ± 0.2	1.63 ± 0.29	1.87 ± 0.53	2.02 ± 0.6	2.15 ± 0.77
PPTC7 (UniProt Q8NI37)	1 ± 0.025	1.01 ± 0.034	1.02 ± 0.02	1.01 ± 0.015	1.01 ± 0.019	1.01 ± 0.019
UniProt Q8TEW0-8|Q5VWU8 and related entries	0.999 ± 0.029	1.04 ± 0.024	1.042 ± 0.0057	1.05 ± 0.04	1.03 ± 0.015	1.115 ± 0.011
UniProt Q8WUY1	1 ± 0.011	0.993 ± 0.035	1 ± 0.018	0.994 ± 0.044	0.995 ± 0.052	0.959 ± 0.033

Target	NP40-soluble protein abundance (concentration: 1mM)	NP40-soluble protein abundance (concentration: 2mM)	NP40-soluble protein abundance (concentration: 4mM)	NP40-soluble protein abundance (concentration: 6mM)	NP40-soluble protein abundance (concentration: 8mM)	NP40-soluble protein abundance (concentration: 10mM)
UniProt Q92567 and related entries	1.01 ± 0.0066	1.01 ± 0.026	0.9905 ± 0.0034	1.018 ± 0.0052	1.004 ± 0.0016	1.017 ± 0.0094
UniProt Q92572	0.972 ± 0.016	0.958 ± 0.02	0.957 ± 0.021	0.962 ± 0.029	0.953 ± 0.027	0.933 ± 0.0066
ANKS1A (UniProt Q92625)	1.02 ± 0.032	1.04 ± 0.057	1.03 ± 0.052	1.02 ± 0.054	0.985 ± 0.062	0.989 ± 0.06
NOC3L (UniProt Q8WTT2)	1.09 ± 0.046	1.13 ± 0.1	1.11 ± 0.048	1.24 ± 0.048	1.23 ± 0.052	1.28 ± 0.085
TRUB1 (UniProt Q8WWH5)	1.05 ± 0.023	1.07 ± 0.047	1.04 ± 0.025	1.05 ± 0.037	1.05 ± 0.011	1.08 ± 0.048
UniProt Q8WXH0 and related entries	1.008 ± 0.004	1.01 ± 0.015	0.984 ± 0.015	0.941 ± 0.013	0.906 ± 0.026	0.919 ± 0.018
GTF3C2 (UniProt Q8WUA4)	0.965 ± 0.025	0.993 ± 0.083	0.964 ± 0.094	1 ± 0.061	0.982 ± 0.052	1.03 ± 0.059
UniProt Q92738 and related entries	0.986 ± 0.019	1.04 ± 0.077	0.96 ± 0.03	0.99 ± 0.036	0.966 ± 0.028	0.969 ± 0.019
UniProt Q8NG31 and related entries	1.02 ± 0.041	1 ± 0.028	0.999 ± 0.048	0.926 ± 0.052	0.902 ± 0.035	0.905 ± 0.064
UniProt Q92804 and related entries	1.07 ± 0.15	1.15 ± 0.031	1.19 ± 0.17	1.27 ± 0.21	1.32 ± 0.13	1.54 ± 0.23
TDRD7 (UniProt Q8NHU6)	1.008 ± 0.0095	1.01 ± 0.022	0.995 ± 0.014	0.9752 ± 0.0069	0.96444 ± 0.0008	0.994 ± 0.042
UniProt Q8TBE0 and related entries	1.04 ± 0.063	1.03 ± 0.09	1.07 ± 0.037	1.05 ± 0.05	1.02 ± 0.031	1.02 ± 0.04
UniProt Q8WUF8 and related entries	1.01 ± 0.016	1.044 ± 0.0074	1.037 ± 0.0037	1.04 ± 0.056	1.02 ± 0.045	1.02 ± 0.031
EDEM1 (UniProt Q92611)	1.001 ± 0.0074	1.02 ± 0.03	0.984 ± 0.052	0.99 ± 0.043	0.982 ± 0.023	0.989 ± 0.067
MAML1 (UniProt Q92585)	0.9881 ± 0.0068	1.03 ± 0.044	1.01 ± 0.055	0.9797 ± 0.0086	0.985 ± 0.058	0.976 ± 0.026
UniProt Q8TEP8-3	0.968 ± 0.014	0.983 ± 0.045	0.974 ± 0.027	0.973 ± 0.016	0.961 ± 0.02	0.944 ± 0.022
DTD1 (UniProt Q8TEA8)	1.02 ± 0.027	1.04 ± 0.11	1.02 ± 0.038	1.01 ± 0.06	1.01 ± 0.059	1.04 ± 0.054
UniProt Q92614 and related entries	1.02 ± 0.025	1.05 ± 0.026	1.01 ± 0.014	0.984 ± 0.045	0.955 ± 0.026	0.971 ± 0.042
UniProt Q8TDR0 and related entries	1.03 ± 0.03	1.02 ± 0.03	1.02 ± 0.014	1.03 ± 0.021	1.04 ± 0.042	1.006 ± 0.006
UniProt Q92834 and related entries	0.987 ± 0.017	1.01 ± 0.047	1 ± 0.012	0.9855 ± 0.0088	0.986 ± 0.011	0.986 ± 0.019
